Consider 6 molecules from patent US20230105029A1.

This assay has as its target marmoset monkey IL4Rα-his protein (marmoset monkey). The assay can be described thus: SPR (Biacore), antibody captured, cal-IL4Rα-his flowed. A general note: SPR reads the build-up and loss of mass on a sensor chip optically.

Results are given in words; binding and its absence hold for the method and conditions named. A result given as binding can be weak or reduced; the word gives no strength.

B1: huC2C1A1A1-V14 (antibody, human IgG4 S228P, kappa, V domains shown)
VH: EVQLVESGGGLVQPGGSLRLSCAASGFTFSTYGMSWVRQAPGKGLVWVATINSNGGSTSYPDSVKGRFTISRDNAKNTLYLQMNSLRAEDTAVYYCARFFRFRNAMDYWGQGTLVTVSS
VL: DIQMTQSPSSLSASVGQRVTITCRTSENIYSYLAWYQQKQGKPPRFLIYNAKTLAEGVPSRFSGSGSGTEFTLTITSLQAEDFGVYYCQHYYGPPTWTFGPGTKLEIKR
On to B1, for which the binding result was “binds”.

B2: chimeric antibody C2C1A1A1 (antibody, human IgG4 S228P, kappa, V domains shown)
VH: EVQLVESGGGLVQPGGSLKLSCAASGFTFSTYGMSWVRQTPDKRLELVATINSNGGSTSYPDSVKGRFTISRDNAKNTLYLQMSSLKSEDTAMFYCARFFRFRNAMDYWGQGTSVTVSS
VL: DIQMTQSPASLSASVGETVTITCRTSENIYSYLAWYQQKQGKSPQFLVYNAKTLAEGVPSRFSGSGSGTQFSLNINSLQSEDFGSYYCQHYYGPPTWTFGGGTKLEIKR
On to B2, for which the binding result is on record as “binds”.

B3: chimeric antibody B8G11F2B7G5E8 (antibody, human IgG4 S228P, kappa, V domains shown)
VH: EVQLQQSGADLVRPGASVKLSCTASGFNIKDTYMHWVKQRPEQGLEWVGRIDPTNGYTIYASKFQGKATITADTSSNTAYMQLSSLTSGDTAVYHCVSRRPWFAYWGQGTLVTVSA
VL: DILMTQTPLSLPVSLGAQASISCRSSQSIVHSNGNTYLEWYLQKPGQSPKLLIYKVTNRFSGVPDRFSGSGSGTDFTLKISRVEAEDLGIYYCFQGSHVPYTFGGGTKLEIKR
Consider B3, for which the binding result is “binds”.

B4: huB8G11F2B7G5E8-V14 (antibody, human IgG4 S228P, kappa, V domains shown)
VH: EVQLVQSGAEVKKPGATVKISCKVSGFNIKDTYMHWVKQAPGKGLEWMGRIDPTNGYTIYASKFQGKATITADTSSNTAYMELSSLRSEDTAVYHCVSRRPWFAYWGQGTLVTVSS
VL: DIVMTQTPLSLSVTPGQPASISCRSSQSIVHSNGNTYLEWYLQKPGQSPQLLIYKVTNRFSGVPDRFSGSGSGTDFTLKISRVEAEDVGVYYCFQGSHVPYTFGQGTKLEIKR
Turning to B4, the binding entry is given as “binds”.

B5: huB8G11F2B7G5E8-V2 (antibody, human IgG4 S228P, kappa, V domains shown)
VH: EVQLVQSGAEVKKPGATVKISCKVSGFNIKDTYMHWVKQAPGKGLEWVGRIDPTNGYTIYASKFQGKATITADTSSNTAYMELSSLRSEDTAVYHCVSRRPWFAYWGQGTLVTVSS
VL: DIVMTQTPLSLSVTPGQPASISCRSSQSIVHSNGNTYLEWYLQKPGQSPQLLIYKVTNRFSGVPDRFSGSGSGTDFTLKISRVEAEDVGVYYCFQGSHVPYTFGQGTKLEIKR
As for B5, the binding result is recorded as “binds”.

B6: huB8G11F2B7G5E8-V4 (antibody, human IgG4 S228P, kappa, V domains shown)
VH: EVQLVQSGAEVKKPGATVKISCKASGFNIKDTYMHWVKQAPGKGLEWMGRIDPTNGYTIYASKFQGKATITADTSSNTAYMELSSLRSEDTAVYHCVSRRPWFAYWGQGTLVTVSS
VL: DIVMTQTPLSLSVTPGQPASISCRSSQSIVHSNGNTYLEWYLQKPGQSPQLLIYKVTNRFSGVPDRFSGSGSGTDFTLKISRVEAEDVGVYYCFQGSHVPYTFGQGTKLEIKR
In the case of B6, the binding entry is recorded as “binds”.
